Results as given in US20220306759A1.
Results are given in words; binding and its absence hold for the method and conditions named. Some entries that bind do so weakly or less than the wild type.

Amino acid sequences for entries named in this document (tags omitted). A change or cut given only in a name is not applied to a line headed by its entry. Chains listed by the source or under a name are the forms on record and can include a tag or linker.
Human CD71-His6 (P02786, form named): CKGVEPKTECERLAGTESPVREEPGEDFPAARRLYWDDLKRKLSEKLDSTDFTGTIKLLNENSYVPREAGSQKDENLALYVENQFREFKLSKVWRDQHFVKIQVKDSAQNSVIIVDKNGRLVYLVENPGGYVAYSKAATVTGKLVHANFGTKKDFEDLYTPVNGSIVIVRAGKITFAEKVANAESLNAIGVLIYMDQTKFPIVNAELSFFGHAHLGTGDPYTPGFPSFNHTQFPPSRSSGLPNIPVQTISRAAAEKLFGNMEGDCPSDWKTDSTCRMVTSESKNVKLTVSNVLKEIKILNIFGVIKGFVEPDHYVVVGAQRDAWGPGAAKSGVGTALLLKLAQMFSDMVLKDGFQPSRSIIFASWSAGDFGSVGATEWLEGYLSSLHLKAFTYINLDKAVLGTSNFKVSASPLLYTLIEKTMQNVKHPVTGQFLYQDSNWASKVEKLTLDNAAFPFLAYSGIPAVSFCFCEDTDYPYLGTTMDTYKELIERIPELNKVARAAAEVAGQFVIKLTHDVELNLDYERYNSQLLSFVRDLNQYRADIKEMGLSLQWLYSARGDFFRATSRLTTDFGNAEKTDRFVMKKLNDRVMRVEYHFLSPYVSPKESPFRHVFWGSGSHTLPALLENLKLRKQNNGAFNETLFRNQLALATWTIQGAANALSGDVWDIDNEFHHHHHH

Legend:
[1] = molecular target: Cyno CD71-His6 (cynomolgus monkey); assay: BLI (Octet)
Human CD71-His6 (human) = Human CD71-His6 (human) (UniProt P02786); assay: BLI (Octet)

binding [1]: binds
binding (Human CD71-His6 (human)): binds
B1: anti-CD71 Fab fragment (papain digest of anti-CD71 21.12) (Fab, V domains shown)
VH: QVQLVQSGAEVKKPGASVKMSCKASGYTFTSYWMHWVRQAPGQGLEWIGAIYPGNSETGYAQKFQGRATLTADTSTSTAYMELSSLRSEDTAVYYCTRENWDPGFAFWGQGTLITVSS
VL: DIQMTQSPSSLSASVGDRVTITCSASSSVYYMYWFQQKPGKAPKLWIYSTSNLASGVPSRFSGSGSGTDYTLTISSMQPEDFATYYCQQRRNYPYTFGQGTKLEIKR
